No constants are given. Whether binding was seen depends on the method and setting. Binding seen in cells or lysates may run through a third protein. A yes stands for co-enrichment or nearness to the bait. Other partners may have been found.
T1: Na+/H+ exchanger regulatory factor-1 (mouse (endogenous in mouse liver)) (UniProt P70441)
T1 sequence: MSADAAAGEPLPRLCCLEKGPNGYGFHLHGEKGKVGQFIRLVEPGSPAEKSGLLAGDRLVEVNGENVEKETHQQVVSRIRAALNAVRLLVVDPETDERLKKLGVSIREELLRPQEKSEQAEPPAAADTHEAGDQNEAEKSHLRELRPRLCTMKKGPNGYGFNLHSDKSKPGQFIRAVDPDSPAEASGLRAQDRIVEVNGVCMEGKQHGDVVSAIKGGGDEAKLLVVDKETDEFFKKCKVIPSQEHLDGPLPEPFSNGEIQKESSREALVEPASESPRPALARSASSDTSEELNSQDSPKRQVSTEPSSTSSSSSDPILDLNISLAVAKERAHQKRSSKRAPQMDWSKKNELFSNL

By UniProt entry, the sequences of proteins in these tests, tags left out.
UniProt P26040: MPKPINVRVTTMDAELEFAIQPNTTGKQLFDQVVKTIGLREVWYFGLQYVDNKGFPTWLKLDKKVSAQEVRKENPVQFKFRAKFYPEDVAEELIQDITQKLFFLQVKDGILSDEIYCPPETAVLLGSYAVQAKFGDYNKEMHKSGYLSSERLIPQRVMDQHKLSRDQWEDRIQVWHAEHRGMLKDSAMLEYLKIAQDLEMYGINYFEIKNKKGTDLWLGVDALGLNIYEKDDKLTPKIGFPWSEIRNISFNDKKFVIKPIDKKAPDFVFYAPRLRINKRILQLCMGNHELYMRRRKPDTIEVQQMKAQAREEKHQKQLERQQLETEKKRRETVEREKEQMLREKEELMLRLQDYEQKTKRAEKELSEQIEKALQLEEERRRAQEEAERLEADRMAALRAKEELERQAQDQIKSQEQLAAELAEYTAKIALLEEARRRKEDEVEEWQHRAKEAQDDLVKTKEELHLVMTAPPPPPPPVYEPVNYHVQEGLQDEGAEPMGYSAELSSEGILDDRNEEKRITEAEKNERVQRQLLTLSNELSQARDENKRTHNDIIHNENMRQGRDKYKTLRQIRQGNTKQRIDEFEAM


Target: T1, Na+/H+ exchanger regulatory factor-1 (mouse (endogenous in mouse liver))
Assay: affinity purification with mass spectrometry; hepatic membrane fractions of wild-type mice at ZT6 and ZT18; IP with anti-NHERF1 antibodies, SDS-PAGE with negative gel stain, bands cut and analysed by nano-LC-MS/MS

binding | Molecule
binds | EZRIN (from UniProt P26040 1-586)
binds | fatty acid transport protein-5 (protein, UniProt Q4LDG0 1-689) MGIWKKLTLLLLLLLLVGLGQPPWPAAMALALRWFLGDPTCLVLLGLALLGRPWISSWMPHWLSLVGAALTLFLLPLQPPPGLRWLHKDVAFTFKMLFYGLKFRRRLNKHPPETFVDALERQALAWPDRVALVCTGSEGSSITNSQLDARSCQAAWVLKAKLKDAVIQNTRDAAAILVLPSKTISALSVFLGLAKLGCPVAWINPHSRGMPLLHSVRSSGASVLIVDPDLQENLEEVLPKLLAENIHCFYLGHSSPTPGVEALGASLDAAPSDPVPASLRATIKWKSPAIFIFTSGTTGLPKPAILSHERVIQVSNVLSFCGCRADDVVYDVLPLYHTIGLVLGFLGCLQVGATCVLAPKFSASRFWAECRQHGVTVILYVGEILRYLCNVPEQPEDKIHTVRLAMGNGLRANVWKNFQQRFGPIRIWEFYGSTEGNVGLMNYVGHCGAVGRTSCILRMLTPFELVQFDIETAEPLRDKQGFCIPVEPGKPGLLLTKVRKNQPFLGYRGSQAESNRKLVANVRRVGDLYFNTGDVLTLDQEGFFYFQDRLGDTFRWKGENVSTGEVECVLSSLDFLEEVNVYGVPVPGCEGKVGMAAVKLAPGKTFDGQKLYQHVRSWLPAYATPHFIRIQDSLEITNTYKLVKSRLVREGFDVGIIADPLYILDNKAQTFRSLMPDVYQAVCEGTWNL

From paper PMC5998136
